{
  "source": "patent US11793983B2",
  "about": "“Sonodynamic therapy using microbubbles and pulsed wave ultrasound methods and systems” (University of Pittsburgh-Of the Commonwealth System of …, priority 2017, dated 2023)",
  "key": {"[1]": {"test_system": "reactive oxygen species (ROS)", "experiment": "ROS generation after ultrasound treatment, Amplex Red assay", "settings": "PpIX 2.9 μM, US 1 MHz, 10% duty cycle, various intensities, 2 min"}, "[2]": {"test_system": "Mouse squamous cell carcinoma cells SCC-VII", "experiment": "Cytotoxicity in vitro with ultrasound, alamarBlue cell viability assay", "format": "cell-based", "description": "Mouse squamous cell carcinoma cells SCC-VII were cultured in RPMI 1640 medium supplemented with 10% fetal bovine serum (FBS), […] and 200 IU/mL penicillin (Gibco, ThermoFisher Scientific, Waltham, Mass.). Cells were harvested and suspended in a concentration of 1×10^6 cells/mL using serum free RPMI-1640 medium. Every 2 mL of cell suspension was transferred to 14 mL Falcon round-bottom polystyrene tubes. Immediately before the US treatment, the suspension was supplemented together with various concentrations of MBPpIX. US (1 MHz, 10% duty cycle) exposure time for each acoustic condition is 2 min. During exposure, the sample tube was gently shaking occasionally (every 10 sec) to improve mixing and to provide uniform exposure. Free PpIX (first dissolved in DMSO; final concentration: 2.9 μM) or PpIX liposome (precursor of MBPpIX, with equivalent PpIX concentration of 2.9 μM) were used for comparison and cells not treated were used as controls (NT). After treatment procedure, 300 μL of the cell suspension was transferred to a 24 well plate prefilled with 2 mL cell culture medium, and the cells were incubated at 37° C. for 24 hours. Cell viability was then measured using alamarBlue cell viability assay. Cell morphology was examined with bright field microscopy (IX81, Olympus, Center Valley, Pa.).\nPulsed wave therapeutic ultrasound was delivered with a single-element transducer driven with a function generator (33250A; Agilent, Santa Clara, Calif., USA) and power amplifier (100A250A; Amplifier Research, Souderton, Pa., USA). For in vitro ROS generation and cytotoxicity studies, US at 1 MHz center frequency was delivered with a flat disk transducer (A303S, ½ inch diameter, Olympus NDT, Waltham, Mass., USA), with various spatial average pulse average intensities (ISAPA) and duty cycles."}, "SCC-VII tumor [3]": {"test_system": "SCC-VII tumor", "experiment": "In vivo tumor inhibition with intratumoral injection plus US", "set-up": "species or system C3H/NeJ female mice"}, "SCC-VII tumor [4]": {"test_system": "SCC-VII tumor", "experiment": "In vivo tumor inhibition with intravenous infusion plus US", "set-up": "species or system C3H/NeJ female mice"}},
  "note": "For at least one compound, name, drawing or mass did not settle the structure.",
  "data": [
    {"smiles": "C=CC1=C(C)c2cc3[nH]c(cc4nc(cc5[nH]c(cc1n2)c(C)c5CCC(=O)O)C(CCC(=O)O)=C4C)c(C)c3C=C", "note": "[PpIX, protoporphyrin IX]", "values": [
      {"measurement": "ROS generation", "setting": "[1]", "result": "ROS generation was detected"},
      {"measurement": "cell morphology, microscopic images", "setting": "[2]; +US, 24 hr post treatment", "result": "cell rounding and apoptotic body"},
      {"measurement": "cell killing compared with NT control", "setting": "[2]; PpIX 2.9 μM, ISAPA=2 W/cm^2, 10% duty cycle, 2 min", "result": "high levels of cell killing"},
      {"measurement": "cell killing compared with NT", "setting": "[2]; all US conditions, 10% duty cycle, p<0.01", "result": "Significant cell killing"},
      {"measurement": "tumor doubling time versus MBBlank+US", "setting": "SCC-VII tumor [3]", "result": "numerically but not significantly higher"},
      {"measurement": "normalized tumor volume versus MBBlank+US", "setting": "SCC-VII tumor [3]; day 3 and day 6", "result": "numerically but not significantly smaller"},
      {"measurement": "tumor doubling time versus MBBlank+US", "setting": "SCC-VII tumor [4]", "result": "numerically but not significantly higher"}
    ]}
  ]
}
